Measurements reported in PubChem BioAssay AID743121 (NCATS, 2013).

Screen: 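Partners whose loss is lethal together with topoisomerase I blockade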 (primary screen)
Cell system: MDA-MB-231 cells, a human breast cancer line
Knock-down reagent: single siRNA against human genes, 20 nM siRNA (0.8 pmol per well)
Timing: 120 h (drug added 48 h after transfection, read 72 h later)
Treatment: camptothecin 20 nM (about EC30) for 72 h; vehicle 0.1% DMSO in parallel plates
Read-out: 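Cell viability by ATP luminescence (CellTiter-Glo) as % of non-targeting siRNA wells, and the log2 ratio of viability without drug over viability with camptothecin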
Reading the numbers: log2 vehicle/camptothecin viability: higher = stronger sensitisation to camptothecin; viability with camptothecin and viability without drug: higher = more viable cells
Hit rule: 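Active genes have an RSA gene-level p-value below 0.001, computed from the ratios of their separate siRNAs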
The whole screen tested about 26,000 reagents; below is an unselected part. 167 of all reagents (0.63%) count as active. 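Calls are per gene from RSA p-values that are not deposited; an individual active-marked siRNA can sensitise only weakly.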 A number with no mark means an inactive call. The numbers tell different reagents against one gene apart.

Target gene	siRNA no.	log2 vehicle/camptothecin viability	viability with camptothecin (% of control)	viability without drug (% of control)
PTCHD1 (GeneID 139411)	1	-0.0356	102	99.7
PTCHD1 (GeneID 139411)	2	-0.313	88.3	71.1
PTCHD1 (GeneID 139411)	3	-0.57	92.8	62.5
PTCHD1 (GeneID 139411)	4	-0.254	111	92.8
FRZB (GeneID 2487)	1	-0.146	59.7	54
FRZB (GeneID 2487)	2	-0.101	38	35.5
FRZB (GeneID 2487)	3	-0.365	25.2	19.5
FRZB (GeneID 2487)	4	-0.0194	36.5	36
ITGB1 (GeneID 3688)	1	-0.098	97.3	90.9
ITGB1 (GeneID 3688)	2	-0.0607	99.5	95.4
ITGB1 (GeneID 3688)	3	-0.47	92.5	66.8
ITGB1 (GeneID 3688)	4	-0.184	142	125
KCNK5 (GeneID 8645)	1	0.164	38	42.5
KCNK5 (GeneID 8645)	2	-0.341	71.6	56.5
KCNK5 (GeneID 8645)	3	0.353	50	63.8
KCNK5 (GeneID 8645)	4	-0.153	88.9	79.9
GABRQ (GeneID 55879)	1	0.087	73.8	78.4
GABRQ (GeneID 55879)	2	-0.373	86	66.4
GABRQ (GeneID 55879)	3	0.0164	38.3	38.7
TAS2R14 (GeneID 50840)	1	0.398	62.9	82.8
TAS2R14 (GeneID 50840)	2	-0.236	100	85
TAS2R14 (GeneID 50840)	3	-0.263	67.7	56.4
TAS2R14 (GeneID 50840)	4	-0.413	86.6	65
IFT54 (GeneID 26146)	1	-0.355	63.3	49.5
IFT54 (GeneID 26146)	2	-0.312	99.9	80.5
IFT54 (GeneID 26146)	3	-0.283	116	95.4
ADCY2 (GeneID 108)	1	-0.0274	100	98.1
ADCY2 (GeneID 108)	2	-0.234	56.7	48.2
ADCY2 (GeneID 108)	3	-0.45	75.6	55.4
ADCY2 (GeneID 108)	4	-0.272	83.3	68.9
ADGRL4 (GeneID 64123)	1	0.702	54.5	88.7
ADGRL4 (GeneID 64123)	2	-0.361	88.2	68.6
ADGRL4 (GeneID 64123)	3	-0.279	79.7	65.7
ADGRL4 (GeneID 64123)	4	-0.437	86.4	63.9
DTX3L (GeneID 151636)	1	-0.561	74.1	50.3
DTX3L (GeneID 151636)	2	-0.00525	78.7	78.4
DTX3L (GeneID 151636)	3	0.0591	89	92.8
DTX3L (GeneID 151636)	4	-0.141	39.7	36
NSD3 (GeneID 54904)	1	-0.6	53.1	35
NSD3 (GeneID 54904)	2	-0.316	81.6	65.5
NSD3 (GeneID 54904)	3	-0.296	71.2	58
NSD3 (GeneID 54904)	4	-0.0304	91.8	89.9
SALL1 (GeneID 6299)	1	0.0457	93.3	96.3
SALL1 (GeneID 6299)	2	-0.331	76.7	61
SALL1 (GeneID 6299)	3	-0.32	95.2	76.3
SALL1 (GeneID 6299)	4	-0.672	66.5	41.7
GPR4 (GeneID 2828)	1	0.02	62.1	62.9
GPR4 (GeneID 2828)	2	0.135	23.1	25.3
GPR4 (GeneID 2828)	3	0.214	78	90.5
GPR4 (GeneID 2828)	4	-0.0716	75.9	72.2
DDI2 (GeneID 84301)	1	0.0124	91.5	92.3
DDI2 (GeneID 84301)	2	-0.0852	116	109
DDI2 (GeneID 84301)	3	-0.373	84.7	65.4
DDI2 (GeneID 84301)	4	-0.112	98.1	90.8
DDI2 (GeneID 84301)	5	0.194	44.6	51
DDI2 (GeneID 84301)	6	0.251	20.4	24.3
DDI2 (GeneID 84301)	7	0.0582	88.8	92.5
DDI2 (GeneID 84301)	8	-0.255	84.1	70.4
FBXL19 (GeneID 54620)	1	-0.0669	106	102
FBXL19 (GeneID 54620)	2	-0.307	108	87.5
FBXL19 (GeneID 54620)	3	-0.192	95.8	83.9
CREM (GeneID 1390)	1	0.0625	71.9	75
CREM (GeneID 1390)	2	-0.467	69.8	50.5
CREM (GeneID 1390)	3	-0.383	91.8	70.4
CREM (GeneID 1390)	4	-0.233	88.8	75.5
CREM (GeneID 1390)	5	-0.23	64.7	55.2
CREM (GeneID 1390)	6	-0.396	93.2	70.8
SLC7A13 (GeneID 157724)	1	-0.142	53.1	48.2
SLC7A13 (GeneID 157724)	2	-0.285	93.9	77.1
SLC7A13 (GeneID 157724)	3	0.0569	98.2	102
SLC7A13 (GeneID 157724)	4	-0.139	41	37.2
MS4A10 (GeneID 341116)	1	-0.224	120	103
MS4A10 (GeneID 341116)	2	-0.104	93.9	87.4
MS4A10 (GeneID 341116)	3	0.57	59.3	88.1
MS4A10 (GeneID 341116)	4	-0.239	133	112
TAS2R38 (GeneID 5726)	1	-0.305	114	92
TAS2R38 (GeneID 5726)	2	0.741	28.3	47.2
TAS2R38 (GeneID 5726)	3	-0.316	35.4	28.5
TAS2R38 (GeneID 5726)	4	-0.187	48.1	42.3
MMP28 (GeneID 79148)	1	-0.059	107	103
MMP28 (GeneID 79148)	2	-0.277	127	105
MMP28 (GeneID 79148)	3	-0.521	59.3	41.3
MMP28 (GeneID 79148)	4	0.0187	88	89.1
MMP28 (GeneID 79148)	5	-0.332	73.4	58.3
MMP28 (GeneID 79148)	6	0.0992	106	114
DUSP6 (GeneID 1848)	1	0.0123	96.2	97
DUSP6 (GeneID 1848)	2	0.228	61.5	72.1
DUSP6 (GeneID 1848)	3	-0.384	74.5	57.1
DUSP6 (GeneID 1848)	4	0.531	74.2	107
